Some of the results follow. Further columns of the screen follow, without active or inactive calls. Compounds called inactive in the main read-out are mostly missing here. The note in brackets gives the kind of curve behind each potency; many fits are weak.
Experiment: IkB Signaling
Conditions: ABC-DLBCL IkBa-CBG/CBR dual luciferase ratio (green luciferase fused to IkBa over red control in OCI-Ly3 lymphoma cells), 4 h
Outline: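 In this assay, an IκBα–CBG68 fusion accumulates when IKK-driven degradation is blocked; native CBR normalizes for cell number. OCI-Ly3 cells were treated 4 h with compound and doxycycline, then green and red light read after Chroma-Glo addition.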

[1] = measured here: control luc red channel unless noted

In the case of `CCN(c1ccc(Cl)cc1)S(=O)(=O)c1nnc(NC(=O)c2ccccc2C)s1`, the AC50 [1] is reported as 20 µM [falling, partial curve].

For `CC(CNC(=O)C1CCN(C(=O)N2CCOc3ccc(Cl)cc32)CC1)c1ccccc1` (configuration not stated), the AC50 [1] was 12.6 µM [falling, partial curve].

For `CC1Cn2c(C(=O)NCc3cccc(Br)c3)cc3cccc(c32)S1` (configuration not stated), the AC50 [1] was 31.6 µM [falling, single point].

For `CC(C)(C)C1CCc2nc(NC(=O)c3ccc([N+](=O)[O-])cc3)sc2C1` (configuration not stated), the AC50 [1] was 7.94 µM [falling, partial curve].

With `Cc1ccc(C(=O)O)cc1NC1(c2ccccc2)C(=O)c2ccccc2C1=O` the AC50 [1] was 1.58 µM [rising, partial curve].

With `Cc1cccc(-c2nc3c(cnn3-c3ccccc3)c(=O)n2-c2ccc(Br)cc2)c1` the AC50 [1] was 0.501 µM [rising, full curve].

In the case of `COc1ccc2oc(-c3ccc(C)c(NC(=O)c4ccc(-c5ccccc5[N+](=O)[O-])o4)c3)nc2c1`, the AC50 [1] is reported as 10 µM [falling, partial curve].

With `CCCCCCCCCCCCCCCCCC(=O)NC[C@@H](COP(=O)([O-])OCC[N+](C)(C)C)OCC` the AC50 [1] was 25.1 µM [falling, partial curve, poor fit] [measured here: IkB-luc green channel].

In the case of `COc1ccccc1CNC(=O)C1CCCN(c2nnc(C)c3c(C)n(-c4ccccc4)nc23)C1` (configuration not stated), the AC50 [1] is reported as 2.51 µM [falling, partial curve].

For `COc1ccc(-c2nnc(SCC(=O)OC3CCCCC3)o2)cc1OC`, the AC50 [1] was 31.6 µM [falling, single point].

For `O=C(CCSCc1cccc(Cl)c1)NCc1ccc(F)cc1Cl`, the AC50 [1] was 31.6 µM [falling, single point].

With `COc1cccc(N(C(=O)c2ccco2)C(C(=O)NC2CCCC2)c2ccc(N(C)C)cc2)c1` (configuration not stated) the AC50 [1] was 25.1 µM [falling, partial curve].

With `Cc1[nH]c2ccccc2c(=O)c1CN(C)Cc1ccccc1` the AC50 [1] was 3.98 µM [falling, partial curve].

In the case of `Cc1ccc2[nH]c(CSc3nnc(NC(=O)c4ccccc4F)s3)cc(=O)c2c1`, the AC50 [1] is reported as 0.126 µM [rising, full curve, poor fit].

For `CCc1ccccc1NC(=O)c1sc2nc(C)cc(COC)c2c1N`, the AC50 [1] was 0.794 µM [rising, partial curve].

In the case of `Cc1cccc(N(Cc2cc3ccccc3[nH]c2=O)C(=O)c2cccc(Cl)c2)c1`, the AC50 [1] is reported as 10 µM [falling, partial curve].

With `Cc1cccc(CCNC(=O)c2ccc(CSCc3cccc(Cl)c3)o2)c1` the AC50 [1] was 39.8 µM [falling, single point].

In the case of `O=C(C(Cc1ccccc1)n1cccc1)N1CCc2ccccc21` (configuration not stated), the AC50 [1] is reported as 20 µM [falling, partial curve].

With `COc1cccc(C(=O)N2CCN(C3CCC(c4ccccc4)CC3)CC2)c1` (configuration not stated) the AC50 [1] was 20 µM [falling, single point].

In the case of `O=C(CCC1CCCC1)Nc1ccc(Br)cn1`, the AC50 [1] is reported as 0.0794 µM [rising, full curve, poor fit].

In the case of `CCOc1ccccc1N1CC(c2nc3ccccc3n2CCOc2ccccc2OC)CC1=O` (configuration not stated), the AC50 [1] is reported as 20 µM [falling, single point].

For `Cn1nc(-c2ccc(C(=O)Nc3ccc(OC(F)(F)F)cc3)cc2)c2ccccc2c1=O`, the AC50 [1] was 0.00631 µM [falling, full curve, poor fit].

For `O=c1cc(CN2CCN(C/C=C/c3ccccc3)CC2)c2cc(O)ccc2o1`, the AC50 [1] was 15.8 µM [falling, partial curve].

In the case of `O=C(NCc1ccccc1Cl)C(=O)NCC(c1cccs1)S(=O)(=O)c1ccccc1` (configuration not stated), the AC50 [1] is reported as 5.01 µM [rising, partial curve].

With `N#C/C(=C\c1ccc(-c2ccc(Cl)c(C(=O)O)c2)o1)c1nc2ccccc2[nH]1` the AC50 [1] was 25.1 µM [falling, partial curve].

For `Cc1ccc(-n2c(SCc3ccccc3C)nc3[nH]ncc3c2=O)cc1C`, the AC50 [1] was 20 µM [falling, partial curve].

With `Cc1cccn2c(=O)c3cc(C(=O)NC(C)c4ccccc4)c(=N)n(CCOCCO)c3nc12` (configuration not stated) the AC50 [1] was 31.6 µM [falling, partial curve].

In the case of `COc1ccc(Cl)cc1NC(=O)c1c(NCc2cccs2)sc2c1CCCC2`, the AC50 [1] is reported as 39.8 µM [falling, single point].

For `Cc1cccc(-n2ncc(C(=O)Nc3ccc4c(c3)OCO4)c2C2CCN(C(=O)OC(C)(C)C)CC2)c1`, the AC50 [1] was 15.8 µM [falling, partial curve].

With `CN(C)c1ccc(NC(=O)CSC2=Nc3ccccc3C3=NC(CC(=O)NCc4ccc5c(c4)OCO5)C(=O)N23)cc1` (configuration not stated) the AC50 [1] was 15.8 µM [falling, single point].

In the case of `Oc1ccc(NCc2ccccc2OCc2ccccc2Cl)cc1`, the AC50 [1] is reported as 15.8 µM [falling, partial curve].

For `Cc1ccc(NC(=O)Cn2cnc3c(oc4ccccc43)c2=O)cc1`, the AC50 [1] was 15.8 µM [falling, partial curve].

With `Cc1ccc(COc2cccc3cc(-c4noc(-c5ccc(C)cc5)n4)c(=O)oc23)cc1` the AC50 [1] was 0.794 µM [falling, partial curve].

In the case of `CC(C)C(=O)c1cc2c(cc1NC(=O)c1ccccc1F)OCCO2`, the AC50 [1] is reported as 15.8 µM [falling, partial curve].

For `COc1ccc(C(=O)NCc2nnc(SCC(=O)Nc3ccc(F)cc3)n2-c2ccccc2)cc1`, the AC50 [1] was 25.1 µM [falling, single point].

With `COC(=O)c1ccc(NC(=O)CSc2nc3c(c(=O)n(C)c(=O)n3C)n2Cc2ccccc2)cc1` the AC50 [1] was 20 µM [falling, single point].

In the case of `COC(=O)c1ccc(OC)c(CSc2nnc(COc3cccc(C)c3)o2)c1`, the AC50 [1] is reported as 15.8 µM [falling, partial curve].

With `Cc1cc(Nc2ccc(Cl)cc2)n2cnnc2n1` the AC50 [1] was 39.8 µM [falling, single point].

With `CC(C)N1CCC2(CC1)N=C(c1ccc3c(c1)OCO3)CC(c1cc(Cl)ccc1O)N2` (configuration not stated) the AC50 (measured here: IkB-luc green channel) was 3.98 µM [rising, partial curve] and the AC50 (measured here: control luc red channel) was 10 µM [falling, partial curve].

For `Cc1ccccc1-c1noc(-c2cc(C(C)C)[nH]n2)n1`, the AC50 [1] was 15.8 µM [falling, partial curve].

With `Cc1cccc(N2CCN(C(=O)CN3C(=O)COc4ccc(S(=O)(=O)N5CCCC5)cc43)CC2)c1C` the AC50 [1] was 3.16 µM [falling, single point].

With `CC(NC(=O)c1ccco1)C(c1cccs1)N1CCN(c2ccccc2)CC1` (configuration not stated) the AC50 [1] was 15.8 µM [falling, partial curve].

For `N#C/C(=C\c1c(Oc2ccc(F)cc2)nc2ccccn2c1=O)c1nc2ccccc2s1`, the AC50 [1] was 25.1 µM [falling, single point].

For `COCC(=O)O[C@]1(CCN(C)CCCc2nc3ccccc3[nH]2)CCc2cc(F)ccc2[C@@H]1C(C)C`, the AC50 [1] was 15.8 µM [falling, partial curve] [measured here: IkB-luc green channel].

With `CCc1ccc(CNC(=O)C2CCN(C(=O)c3ccc(-n4ccc5ccccc54)s3)CC2)cc1` the AC50 [1] was 10 µM [falling, partial curve].

For `Cc1ccccc1CS(=O)(=O)c1ncc(Cl)c(C(=O)Nc2nnc(C(C)C)s2)n1`, the AC50 [1] was 6.31 µM [falling, full curve].

In the case of `Cc1ccccc1-c1noc(-c2ccc(N3CCCC3)c([N+](=O)[O-])c2)n1`, the AC50 [1] is reported as 15.8 µM [falling, single point].

With `CCOc1ccc(N(C(=O)c2ccc(OC)cc2)S(=O)(=O)c2ccc3c(c2)n(C)c(=O)n3C)cc1` the AC50 [1] was 0.398 µM [rising, partial curve].

For `O=C(c1ccc(S(=O)(=O)N2CCCC2)cc1)N1CCN(Cc2ccc3c(c2)OCO3)CC1`, the AC50 [1] was 7.94 µM [falling, partial curve].

With `COc1ccc(OC)c(C(=O)C2COC(=O)C2)c1` (configuration not stated) the AC50 [1] was 15.8 µM [falling, partial curve].

In the case of `COc1cccc(-n2c(SCC(=O)NCCC3=CCCCC3)nc3n[nH]c(C)c3c2=N)c1`, the AC50 [1] is reported as 10 µM [falling, partial curve].

In the case of `N#C/C(=C/c1ccc(N2CCCCCC2)o1)c1ccc(F)cc1`, the AC50 [1] is reported as 3.16 µM [falling, full curve].

In the case of `CCS(=O)(=O)N1Cc2ccccc2CC1C(=O)N1CCN(c2cccc(C)c2C)CC1` (configuration not stated), the AC50 [1] is reported as 20 µM [falling, partial curve].

In the case of `O=C(O)c1c2c(nc3ccc(S(=O)(=O)N4CCC(C(=O)NCc5ccc(Cl)cc5)CC4)cc13)CCCC2`, the AC50 [1] is reported as 15.8 µM [falling, partial curve].

With `O=C(Nc1nc2ccccc2[nH]1)c1ccccc1F` the AC50 [1] was 2 µM [falling, full curve].

With `COc1cc(/C=C/c2nc3cc(Cl)ccc3c(=O)n2-c2ccc(C)cc2C)cc(OC)c1OC` the AC50 [1] was 31.6 µM [falling, single point].

In the case of `O=C(CCCC1=NS(=O)(=O)c2ccccc2N1)N1CCN(c2ccc(Cl)cc2)CC1`, the AC50 [1] is reported as 25.1 µM [falling, single point].

With `COc1ccc(S(=O)(=O)NCC(c2ccco2)N2CCN(c3ccccc3F)CC2)cc1C` (configuration not stated) the AC50 [1] was 39.8 µM [falling, single point].

For `Cc1onc(-c2ccccc2)c1C(N)=O`, the AC50 [1] was 7.94 µM [rising, single point] [measured here: IkB-luc green channel].

In the case of `O=C(Cc1c(O)c2ccccc2[nH]c1=O)NC1CCCCCCC1`, the AC50 [1] is reported as 2.51 µM [falling, full curve].

For `CCOC(=O)c1c(C)oc2nc(C)nc(N3CCN(c4cccc(C)c4C)CC3)c12`, the AC50 [1] was 31.6 µM [falling, single point].
